In paper PMC10000615:
No constants are given. Whether binding was seen depends on the method and setting. In cells and extracts the contact can be indirect. Binding calls can cover weak binding; strength is not graded here. Sequences can lack the tags named with a protein. Blank lines part the entries; values can stand above or below the binder they belong to.

By UniProt entry, the sequences of proteins in these tests, tags left out. Where a name states a change or a piece, a line headed by the entry shows the natural chain unless it says otherwise.
UniProt Q8T9L5: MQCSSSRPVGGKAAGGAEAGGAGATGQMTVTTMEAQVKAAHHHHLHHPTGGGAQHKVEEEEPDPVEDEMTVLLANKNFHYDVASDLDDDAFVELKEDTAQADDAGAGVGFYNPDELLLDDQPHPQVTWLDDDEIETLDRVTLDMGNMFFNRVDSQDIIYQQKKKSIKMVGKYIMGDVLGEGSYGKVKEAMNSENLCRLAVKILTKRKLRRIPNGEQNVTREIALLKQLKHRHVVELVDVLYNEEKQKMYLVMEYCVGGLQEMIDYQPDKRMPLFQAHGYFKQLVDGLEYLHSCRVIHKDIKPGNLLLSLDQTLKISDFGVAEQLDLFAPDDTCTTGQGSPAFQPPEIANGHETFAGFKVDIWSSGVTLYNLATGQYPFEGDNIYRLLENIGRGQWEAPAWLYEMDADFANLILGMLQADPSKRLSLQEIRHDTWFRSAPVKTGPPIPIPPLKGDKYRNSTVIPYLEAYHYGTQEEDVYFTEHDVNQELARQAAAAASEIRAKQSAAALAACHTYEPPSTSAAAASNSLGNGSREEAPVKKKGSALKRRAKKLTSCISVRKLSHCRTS

What was measured:
[1] = biological target: wild type GFP-LKB1 (Drosophila LKB1) (Drosophila melanogaster) (UniProt Q8T9L5); experiment: co-IP; S2R+ cells cotransfected with GFP-LKB1 variants and tagged partner(s); lysed three days after transfection; GFP-LKB1 immunoprecipitated with GFP-binder (Chromotek); partners detected by immunoblotting
[2] = biological target: GFP-LKB1 T353A (Drosophila melanogaster); experiment: as above

binding [1]: binds
B1: PDK1-HA (Phosphoinositide-dependent kinase 1) (enzyme, UniProt Q9W0V1 1-836)
chain: MKCKSWSNKINNYVVRKIKSIKINGTQQQLQLPGSGASGIAAAAVITVASDCGENCSSNGTEHQQHFNIATTTATSATEATMPAMAKEKASATVSLGESNFRDINLKDLAVVVEAASRLHHQQNVCGCGAVSSTENNNNSRYGSSKYLTNGHTSPLAAAVASNSSSVATTPHCRMLHNCSLQQYQNDIRQQTEILDMLRQQHQQGYQSQQQQQQPQQQQEQQQQQEQSQQQQQLQNPAPRRSPNDFIFGRYIGEGSYSIVYLAVDIHSRREYAIKVCEKRLILRERKQDYIKREREVMHQMTNVPGFVNLSCTFQDQRSLYFVMTYARKGDMLPYINRVGSFDVACTRHYAAELLLACEHMHRRNVVHRDLKPENILLDEDMHTLIADFGSAKVMTAHERALATEHCSEQRRSNSDEDDEDSDRLENEDEDFYDRDSEELDDGDDEQQQEEMDSPRHRQRRYNRHRKASFVGTAQYVSPEVLQNGPITPAADLWALGCIVYQMIAGLPPFRGSNDYVIFKEILDCAVDFPQGFDKDAEDLVRKLLRVDPRDRLGAQDEFGYYESIRAHPFFAGIDWQTLRQQTPPPIYPYLPGVSQDEDFRSSYTVPGDLEPGLDERQISRLLSAELGVGSSVAMPVKRSTAKNSFDLNDAEKLQRLEQQKTDKWHVFADGEVILKKGFVNKRKGLFARKRMLLLTTGPRLIYIDPVQMIKKGEIPWSPDLRAEYKNFKIFFVHTPNRTYYLDDPEGYAIHWSEAIENMRKLAYGDPSSTSAVSCSSGSSNSLAVISNSSAASSSNSPTVKRSSPVNAPQASTASDNRTLGSTRTGTSPSKKTASK

binding [1]: binds
binding [2]: binds
B2: Myc-PDK1 (Phosphoinositide-dependent kinase 1) (enzyme, UniProt Q9W0V1 1-836)
chain: B1 chain
